The values below come from paper PMC5529015.

The chains behind the UniProt entries cited, without tags or fusion partners.
UniProt P60879: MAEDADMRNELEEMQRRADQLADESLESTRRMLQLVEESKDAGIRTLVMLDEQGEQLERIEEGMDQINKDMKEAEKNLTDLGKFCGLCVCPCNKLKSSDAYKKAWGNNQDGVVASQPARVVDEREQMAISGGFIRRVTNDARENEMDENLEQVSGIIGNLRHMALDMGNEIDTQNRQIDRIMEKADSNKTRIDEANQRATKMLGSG
UniProt P46096: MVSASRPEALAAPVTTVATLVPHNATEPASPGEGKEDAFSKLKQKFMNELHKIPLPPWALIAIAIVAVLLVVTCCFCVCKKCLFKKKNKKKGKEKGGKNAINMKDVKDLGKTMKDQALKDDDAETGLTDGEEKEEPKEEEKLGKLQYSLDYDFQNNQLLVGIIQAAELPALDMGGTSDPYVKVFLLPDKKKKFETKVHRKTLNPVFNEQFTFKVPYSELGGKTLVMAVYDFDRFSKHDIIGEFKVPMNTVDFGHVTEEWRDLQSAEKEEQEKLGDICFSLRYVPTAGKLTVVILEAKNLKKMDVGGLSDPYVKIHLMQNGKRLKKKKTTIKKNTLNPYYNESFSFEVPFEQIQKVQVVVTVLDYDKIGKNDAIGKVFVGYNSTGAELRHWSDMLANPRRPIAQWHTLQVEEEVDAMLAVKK
UniProt P33173: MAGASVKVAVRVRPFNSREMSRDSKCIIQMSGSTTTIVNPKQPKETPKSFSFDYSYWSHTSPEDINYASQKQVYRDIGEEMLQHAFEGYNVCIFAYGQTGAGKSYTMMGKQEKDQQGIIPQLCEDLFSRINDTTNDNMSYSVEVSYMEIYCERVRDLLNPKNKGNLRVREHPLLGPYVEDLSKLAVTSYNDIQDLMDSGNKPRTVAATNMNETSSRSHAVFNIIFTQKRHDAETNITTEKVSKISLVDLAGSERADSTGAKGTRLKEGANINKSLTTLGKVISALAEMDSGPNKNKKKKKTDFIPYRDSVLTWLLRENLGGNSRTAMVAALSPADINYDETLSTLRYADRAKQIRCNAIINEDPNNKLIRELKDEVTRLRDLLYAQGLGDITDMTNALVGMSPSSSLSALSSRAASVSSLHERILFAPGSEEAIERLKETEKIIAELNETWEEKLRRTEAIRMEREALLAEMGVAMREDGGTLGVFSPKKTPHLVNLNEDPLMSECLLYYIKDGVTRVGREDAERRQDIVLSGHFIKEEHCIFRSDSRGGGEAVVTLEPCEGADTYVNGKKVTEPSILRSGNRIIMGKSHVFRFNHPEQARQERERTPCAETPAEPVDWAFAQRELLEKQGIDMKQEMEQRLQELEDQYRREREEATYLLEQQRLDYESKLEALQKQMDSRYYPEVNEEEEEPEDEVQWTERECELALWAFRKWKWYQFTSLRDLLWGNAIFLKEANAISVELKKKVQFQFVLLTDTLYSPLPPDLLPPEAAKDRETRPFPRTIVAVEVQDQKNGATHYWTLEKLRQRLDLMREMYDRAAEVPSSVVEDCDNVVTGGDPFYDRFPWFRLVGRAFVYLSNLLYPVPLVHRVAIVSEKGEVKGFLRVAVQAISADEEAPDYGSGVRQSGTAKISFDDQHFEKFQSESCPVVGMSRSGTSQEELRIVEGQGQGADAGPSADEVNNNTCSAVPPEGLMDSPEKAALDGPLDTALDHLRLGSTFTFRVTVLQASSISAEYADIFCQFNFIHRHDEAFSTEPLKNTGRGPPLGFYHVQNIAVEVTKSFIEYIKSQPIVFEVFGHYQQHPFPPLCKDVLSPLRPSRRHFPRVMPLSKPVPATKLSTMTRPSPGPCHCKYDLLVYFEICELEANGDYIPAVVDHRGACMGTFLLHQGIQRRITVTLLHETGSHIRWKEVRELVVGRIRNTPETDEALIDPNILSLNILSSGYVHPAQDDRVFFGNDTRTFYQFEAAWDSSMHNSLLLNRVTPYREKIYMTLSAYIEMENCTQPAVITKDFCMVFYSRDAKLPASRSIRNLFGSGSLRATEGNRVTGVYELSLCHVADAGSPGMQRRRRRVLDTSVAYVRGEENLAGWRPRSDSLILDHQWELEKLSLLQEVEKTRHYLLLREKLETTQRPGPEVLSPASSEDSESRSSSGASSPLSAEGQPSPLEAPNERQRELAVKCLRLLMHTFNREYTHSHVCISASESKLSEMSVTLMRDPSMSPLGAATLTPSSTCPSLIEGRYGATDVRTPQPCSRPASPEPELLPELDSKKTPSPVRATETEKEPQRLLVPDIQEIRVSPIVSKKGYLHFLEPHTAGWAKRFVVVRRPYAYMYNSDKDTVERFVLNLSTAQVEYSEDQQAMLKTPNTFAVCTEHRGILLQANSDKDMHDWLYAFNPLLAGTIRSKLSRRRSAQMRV
UniProt P61264: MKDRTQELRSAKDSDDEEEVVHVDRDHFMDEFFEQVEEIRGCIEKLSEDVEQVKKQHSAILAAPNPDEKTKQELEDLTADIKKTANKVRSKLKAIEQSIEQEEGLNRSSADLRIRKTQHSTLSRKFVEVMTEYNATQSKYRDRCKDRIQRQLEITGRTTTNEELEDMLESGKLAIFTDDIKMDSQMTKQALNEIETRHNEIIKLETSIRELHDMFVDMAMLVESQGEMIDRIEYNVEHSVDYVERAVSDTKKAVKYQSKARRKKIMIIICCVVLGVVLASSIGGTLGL

No constants are given. Whether binding was seen depends on the method and setting. In cells and extracts the contact can be indirect. These calls come from enrichment with a bait or labelling near it, and not all partners need be listed. For some of these results: A no says only that the protein was not detected with the bait.

What all share (experiment): affinity purification with mass spectrometry; IP with 10 ug antibody to the bait from 5 mg mouse hippocampal P2 + microsome fraction extracted with Triton X-100, 150 mM NaCl, 50 mM HEPES pH 7.4; overnight, Protein A/G PLUS-Agarose 1 h at 4 C, four washes with 0.1% Triton X-100 buffer; SDS-PAGE, in-gel digestion, LC-MS-MS, label-free iBAQ
Assay [1] addresses T1, tomosyn-1 (mouse (endogenous in hippocampal P2 + microsome fraction)) (UniProt Q8K400).
T1 sequence: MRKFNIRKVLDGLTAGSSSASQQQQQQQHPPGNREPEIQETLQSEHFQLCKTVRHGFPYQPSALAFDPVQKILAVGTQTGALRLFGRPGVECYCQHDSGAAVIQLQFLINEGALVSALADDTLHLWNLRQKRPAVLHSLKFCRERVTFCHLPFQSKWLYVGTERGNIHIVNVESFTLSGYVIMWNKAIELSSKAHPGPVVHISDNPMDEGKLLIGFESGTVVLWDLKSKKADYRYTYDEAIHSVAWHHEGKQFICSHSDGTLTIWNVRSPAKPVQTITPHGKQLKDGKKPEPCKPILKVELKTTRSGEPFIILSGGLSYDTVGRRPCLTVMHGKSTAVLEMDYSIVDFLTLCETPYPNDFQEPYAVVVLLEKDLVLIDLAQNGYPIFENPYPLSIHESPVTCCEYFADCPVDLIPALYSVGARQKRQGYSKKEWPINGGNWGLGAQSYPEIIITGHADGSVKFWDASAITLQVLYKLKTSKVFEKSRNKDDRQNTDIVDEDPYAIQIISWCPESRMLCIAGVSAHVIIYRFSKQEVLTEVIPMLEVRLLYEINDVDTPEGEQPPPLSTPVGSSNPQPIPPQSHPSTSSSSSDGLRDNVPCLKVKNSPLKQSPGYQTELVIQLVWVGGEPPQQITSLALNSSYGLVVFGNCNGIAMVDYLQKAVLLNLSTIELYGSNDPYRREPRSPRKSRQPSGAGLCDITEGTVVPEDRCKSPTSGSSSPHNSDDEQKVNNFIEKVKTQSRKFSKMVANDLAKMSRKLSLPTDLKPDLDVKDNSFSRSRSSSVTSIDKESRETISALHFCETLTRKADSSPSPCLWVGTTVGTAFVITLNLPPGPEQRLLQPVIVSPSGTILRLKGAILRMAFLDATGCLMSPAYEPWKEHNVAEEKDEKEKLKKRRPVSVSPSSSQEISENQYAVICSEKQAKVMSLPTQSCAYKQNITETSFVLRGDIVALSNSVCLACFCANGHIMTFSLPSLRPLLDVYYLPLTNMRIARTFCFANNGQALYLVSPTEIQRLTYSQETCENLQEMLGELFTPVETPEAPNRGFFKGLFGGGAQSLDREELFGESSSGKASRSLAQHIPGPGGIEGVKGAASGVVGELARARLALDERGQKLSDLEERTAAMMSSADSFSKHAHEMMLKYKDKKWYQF

The target of assay [2] is T2, tomosyn-2 (mouse (endogenous in hippocampal P2 + microsome fraction)) (UniProt Q5DQR4).
T2 sequence: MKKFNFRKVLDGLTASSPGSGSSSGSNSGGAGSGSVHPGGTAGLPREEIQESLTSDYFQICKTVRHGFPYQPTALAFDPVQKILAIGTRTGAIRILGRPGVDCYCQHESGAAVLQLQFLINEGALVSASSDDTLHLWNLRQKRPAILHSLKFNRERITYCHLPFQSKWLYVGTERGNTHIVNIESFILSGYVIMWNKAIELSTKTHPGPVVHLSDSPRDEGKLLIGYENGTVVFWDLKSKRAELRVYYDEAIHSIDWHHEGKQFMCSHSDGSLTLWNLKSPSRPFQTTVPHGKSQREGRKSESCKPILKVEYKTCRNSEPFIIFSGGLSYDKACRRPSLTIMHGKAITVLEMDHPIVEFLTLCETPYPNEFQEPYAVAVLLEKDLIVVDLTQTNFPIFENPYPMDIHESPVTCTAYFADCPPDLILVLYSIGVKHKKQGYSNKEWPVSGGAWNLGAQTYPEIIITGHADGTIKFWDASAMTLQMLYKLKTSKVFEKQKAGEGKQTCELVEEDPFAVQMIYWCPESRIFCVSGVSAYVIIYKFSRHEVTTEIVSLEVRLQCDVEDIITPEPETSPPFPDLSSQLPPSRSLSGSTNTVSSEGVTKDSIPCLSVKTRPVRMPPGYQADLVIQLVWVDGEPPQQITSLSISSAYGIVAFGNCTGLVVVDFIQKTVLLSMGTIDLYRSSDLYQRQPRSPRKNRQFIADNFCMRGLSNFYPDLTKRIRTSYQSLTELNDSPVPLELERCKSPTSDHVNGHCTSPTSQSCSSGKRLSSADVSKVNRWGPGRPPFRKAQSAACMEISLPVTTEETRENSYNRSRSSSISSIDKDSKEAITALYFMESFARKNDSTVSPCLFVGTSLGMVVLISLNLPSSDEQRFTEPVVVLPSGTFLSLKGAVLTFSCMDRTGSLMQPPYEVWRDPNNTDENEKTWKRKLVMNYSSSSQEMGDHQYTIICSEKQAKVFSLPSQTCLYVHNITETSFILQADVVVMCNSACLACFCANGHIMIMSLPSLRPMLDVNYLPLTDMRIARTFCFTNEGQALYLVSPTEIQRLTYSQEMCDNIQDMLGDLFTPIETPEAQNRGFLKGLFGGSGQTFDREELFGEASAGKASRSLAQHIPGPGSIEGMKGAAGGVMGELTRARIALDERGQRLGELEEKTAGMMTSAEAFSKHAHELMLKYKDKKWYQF

In assay [3] the target is SNAP25 (mouse (endogenous in hippocampal P2 + microsome fraction)) (UniProt P60879).
Assay [4] addresses synaptotagmin-1 (mouse (endogenous in hippocampal P2 + microsome fraction)) (UniProt P46096).

For the molecule KIF1A (from UniProt P33173 1-1695), the binding entry in assay [1] and in assay [2] was “no binding” in each case.
On to Rab3, for which the binding entry in assay [1] is recorded as “no binding”.
On to Stx1b (from UniProt P61264 1-288), for which the binding entry in assay [3], in assay [1] and in assay [4] was “binds” each time.
In the case of “synaptotagmin-1 (from UniProt P46096 1-421)”, in assay [1], the binding entry was “binds”.
Consider type V myosin, for which the binding result in assay [1] and in assay [2] was “no binding” throughout.

B1: tomosyn-1 (protein, UniProt Q8K400 1-1152)
chain: MRKFNIRKVLDGLTAGSSSASQQQQQQQHPPGNREPEIQETLQSEHFQLCKTVRHGFPYQPSALAFDPVQKILAVGTQTGALRLFGRPGVECYCQHDSGAAVIQLQFLINEGALVSALADDTLHLWNLRQKRPAVLHSLKFCRERVTFCHLPFQSKWLYVGTERGNIHIVNVESFTLSGYVIMWNKAIELSSKAHPGPVVHISDNPMDEGKLLIGFESGTVVLWDLKSKKADYRYTYDEAIHSVAWHHEGKQFICSHSDGTLTIWNVRSPAKPVQTITPHGKQLKDGKKPEPCKPILKVELKTTRSGEPFIILSGGLSYDTVGRRPCLTVMHGKSTAVLEMDYSIVDFLTLCETPYPNDFQEPYAVVVLLEKDLVLIDLAQNGYPIFENPYPLSIHESPVTCCEYFADCPVDLIPALYSVGARQKRQGYSKKEWPINGGNWGLGAQSYPEIIITGHADGSVKFWDASAITLQVLYKLKTSKVFEKSRNKDDRQNTDIVDEDPYAIQIISWCPESRMLCIAGVSAHVIIYRFSKQEVLTEVIPMLEVRLLYEINDVDTPEGEQPPPLSTPVGSSNPQPIPPQSHPSTSSSSSDGLRDNVPCLKVKNSPLKQSPGYQTELVIQLVWVGGEPPQQITSLALNSSYGLVVFGNCNGIAMVDYLQKAVLLNLSTIELYGSNDPYRREPRSPRKSRQPSGAGLCDITEGTVVPEDRCKSPTSGSSSPHNSDDEQKVNNFIEKVKTQSRKFSKMVANDLAKMSRKLSLPTDLKPDLDVKDNSFSRSRSSSVTSIDKESRETISALHFCETLTRKADSSPSPCLWVGTTVGTAFVITLNLPPGPEQRLLQPVIVSPSGTILRLKGAILRMAFLDATGCLMSPAYEPWKEHNVAEEKDEKEKLKKRRPVSVSPSSSQEISENQYAVICSEKQAKVMSLPTQSCAYKQNITETSFVLRGDIVALSNSVCLACFCANGHIMTFSLPSLRPLLDVYYLPLTNMRIARTFCFANNGQALYLVSPTEIQRLTYSQETCENLQEMLGELFTPVETPEAPNRGFFKGLFGGGAQSLDREELFGESSSGKASRSLAQHIPGPGGIEGVKGAASGVVGELARARLALDERGQKLSDLEERTAAMMSSADSFSKHAHEMMLKYKDKKWYQF
B1: in assay [4], the binding entry was “binds”.

B2: tomosyn-2 (protein, UniProt Q5DQR4-1 1-1185)
chain: MKKFNFRKVLDGLTASSPGSGSSSGSNSGGAGSGSVHPGGTAGLPREEIQESLTSDYFQICKTVRHGFPYQPTALAFDPVQKILAIGTRTGAIRILGRPGVDCYCQHESGAAVLQLQFLINEGALVSASSDDTLHLWNLRQKRPAILHSLKFNRERITYCHLPFQSKWLYVGTERGNTHIVNIESFILSGYVIMWNKAIELSTKTHPGPVVHLSDSPRDEGKLLIGYENGTVVFWDLKSKRAELRVYYDEAIHSIDWHHEGKQFMCSHSDGSLTLWNLKSPSRPFQTTVPHGKSQREGRKSESCKPILKVEYKTCRNSEPFIIFSGGLSYDKACRRPSLTIMHGKAITVLEMDHPIVEFLTLCETPYPNEFQEPYAVAVLLEKDLIVVDLTQTNFPIFENPYPMDIHESPVTCTAYFADCPPDLILVLYSIGVKHKKQGYSNKEWPVSGGAWNLGAQTYPEIIITGHADGTIKFWDASAMTLQMLYKLKTSKVFEKQKAGEGKQTCELVEEDPFAVQMIYWCPESRIFCVSGVSAYVIIYKFSRHEVTTEIVSLEVRLQCDVEDIITPEPETSPPFPDLSSQLPPSRSLSGSTNTVSSEGVTKDSIPCLSVKTRPVRMPPGYQADLVIQLVWVDGEPPQQITSLSISSAYGIVAFGNCTGLVVVDFIQKTVLLSMGTIDLYRSSDLYQRQPRSPRKNRQFIADNFCMRGLSNFYPDLTKRIRTSYQSLTELNDSPVPLELERCKSPTSDHVNGHCTSPTSQSCSSGKRLSSADVSKVNRWGPGRPPFRKAQSAACMEISLPVTTEETRENSYNRSRSSSISSIDKDSKEAITALYFMESFARKNDSTVSPCLFVGTSLGMVVLISLNLPSSDEQRFTEPVVVLPSGTFLSLKGAVLTFSCMDRTGSLMQPPYEVWRDPNNTDENEKTWKRKLVMNYSSSSQEMGDHQYTIICSEKQAKVFSLPSQTCLYVHNITETSFILQADVVVMCNSACLACFCANGHIMIMSLPSLRPMLDVNYLPLTDMRIARTFCFTNEGQALYLVSPTEIQRLTYSQEMCDNIQDMLGDLFTPIETPEAQNRGFLKGLFGGSGQTFDREELFGEASAGKASRSLAQHIPGPGSIEGMKGAAGGVMGELTRARIALDERGQRLGELEEKTAGMMTSAEAFSKHAHELMLKYKDKKWYQF
For B2, the binding entry in assay [3], in assay [1] and in assay [4] was “binds” in each case.
